The target of assay [1] is T1, BtuC subunit of BtuCD (E. coli) (UniProt P06609).
T1 sequence: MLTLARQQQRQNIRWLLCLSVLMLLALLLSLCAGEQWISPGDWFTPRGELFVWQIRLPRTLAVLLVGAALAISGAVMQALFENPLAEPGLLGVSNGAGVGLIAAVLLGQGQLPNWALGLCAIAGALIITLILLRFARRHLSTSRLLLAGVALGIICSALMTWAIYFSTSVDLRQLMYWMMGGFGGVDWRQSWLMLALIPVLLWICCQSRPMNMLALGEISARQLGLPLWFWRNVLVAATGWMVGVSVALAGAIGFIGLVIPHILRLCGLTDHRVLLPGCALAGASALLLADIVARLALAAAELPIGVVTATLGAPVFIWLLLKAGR
Kind of assay: mass photometry; SEC fractions of His-tagged membrane proteins purified on Ni-NTA and reconstituted into peptidiscs, diluted 100-fold in PBS to ~5-20 nM; main species: subunits together in the native oligomer or complex in one disc; both purified.

Assay [2] deals with T2, vitamin B12 ABC transporter BtuCD, reconstituted in peptidiscs (E. coli) (UniProt P06609+P06611).
T2 sequence 1: T1 sequence
T2 sequence 2: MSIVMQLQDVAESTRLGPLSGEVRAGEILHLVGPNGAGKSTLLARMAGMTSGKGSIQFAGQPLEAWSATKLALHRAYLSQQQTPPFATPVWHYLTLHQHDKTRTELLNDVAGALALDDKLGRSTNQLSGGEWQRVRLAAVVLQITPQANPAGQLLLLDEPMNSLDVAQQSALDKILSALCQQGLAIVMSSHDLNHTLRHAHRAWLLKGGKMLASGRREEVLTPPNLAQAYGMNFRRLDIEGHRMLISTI
Kind of assay: mass photometry; BtuCD in peptidiscs held at ~200 nM, mixed with BtuF (molar excess; titration 0-1200 nM by the methods, 0 to 900 nM by the results); PBS plus 5 mM MgCl2, room temperature, 30 min; 2 uL diluted into 20 uL PBS just before measuring; no ATP; in solution, nothing immobilised; both purified.

Assay [3] deals with T2, vitamin B12 ABC transporter BtuCD, reconstituted in peptidiscs (E. coli). Briefly: mass photometry; as a1, but with 1 mM ATP in all mixtures; both purified.

Results are given in words; binding and its absence hold for the method and conditions named. Some entries that bind do so weakly or less than the wild type.

Here are results for two molecules from publication PMC10831248, “Characterization of membrane protein interactions by peptidisc-mediated mass photometry” (iScience, 2024).

B1: BtuD subunit of BtuCD (protein, UniProt P06611 1-249)
chain: T2 sequence 2
Consider B1, for which the binding entry in assay [1] is listed as “binds”.

B2: periplasmic B12 binding protein BtuF (natural protein)
chain: APRVITLSPANTELAFAAGITPVGVSSYSDYPPQAQKIEQVSTWQGMNLERIVALKPDLVIAWRGGNAERQVDQLASLGIKVMWVDATSIEQIANALRQLAPWSPQPDKAEQAAQSLLDQYAQLKAQYADKPKKRVFLQFGINPPFTSGKESIQNQVLEVCGGENIFKDSRVPWPQVSREQVLARSPQAIVITGGPDQIPKIKQYWGEQLKIPVIPLTSDWFERASPRIILAAQQLCNALSQVD
Regarding B2, the binding entry in assay [2] and in assay [3] was “binds” each time.
